Targets include TAP-tagged G5_(1–739) (UniProt Q8TEQ6); TAP-tagged G5_(845–1508) (UniProt Q8TEQ6); TAP-tagged G5_(1–1287) (UniProt Q8TEQ6).
Test in all cases: affinity purification with mass spectrometry; TAP (two steps, TEV digestion then calmodulin) of TAP-tagged Gemin5 regions from transfected HEK293 cells, LC-MS/MS; no RNase
Experiment [1] deals with TAP-tagged G5_(845–1508)AxE (UniProt Q8TEQ6).

Sequences of proteins named here, by UniProt entry; tags and fusion partners are left off. A change or cut given only in a name is not applied to a line headed by its entry. A line that says so, or that is headed by a name, gives the form on record, which may keep a tag or linker. Residues count along the entry.
UniProt Q8TEQ6: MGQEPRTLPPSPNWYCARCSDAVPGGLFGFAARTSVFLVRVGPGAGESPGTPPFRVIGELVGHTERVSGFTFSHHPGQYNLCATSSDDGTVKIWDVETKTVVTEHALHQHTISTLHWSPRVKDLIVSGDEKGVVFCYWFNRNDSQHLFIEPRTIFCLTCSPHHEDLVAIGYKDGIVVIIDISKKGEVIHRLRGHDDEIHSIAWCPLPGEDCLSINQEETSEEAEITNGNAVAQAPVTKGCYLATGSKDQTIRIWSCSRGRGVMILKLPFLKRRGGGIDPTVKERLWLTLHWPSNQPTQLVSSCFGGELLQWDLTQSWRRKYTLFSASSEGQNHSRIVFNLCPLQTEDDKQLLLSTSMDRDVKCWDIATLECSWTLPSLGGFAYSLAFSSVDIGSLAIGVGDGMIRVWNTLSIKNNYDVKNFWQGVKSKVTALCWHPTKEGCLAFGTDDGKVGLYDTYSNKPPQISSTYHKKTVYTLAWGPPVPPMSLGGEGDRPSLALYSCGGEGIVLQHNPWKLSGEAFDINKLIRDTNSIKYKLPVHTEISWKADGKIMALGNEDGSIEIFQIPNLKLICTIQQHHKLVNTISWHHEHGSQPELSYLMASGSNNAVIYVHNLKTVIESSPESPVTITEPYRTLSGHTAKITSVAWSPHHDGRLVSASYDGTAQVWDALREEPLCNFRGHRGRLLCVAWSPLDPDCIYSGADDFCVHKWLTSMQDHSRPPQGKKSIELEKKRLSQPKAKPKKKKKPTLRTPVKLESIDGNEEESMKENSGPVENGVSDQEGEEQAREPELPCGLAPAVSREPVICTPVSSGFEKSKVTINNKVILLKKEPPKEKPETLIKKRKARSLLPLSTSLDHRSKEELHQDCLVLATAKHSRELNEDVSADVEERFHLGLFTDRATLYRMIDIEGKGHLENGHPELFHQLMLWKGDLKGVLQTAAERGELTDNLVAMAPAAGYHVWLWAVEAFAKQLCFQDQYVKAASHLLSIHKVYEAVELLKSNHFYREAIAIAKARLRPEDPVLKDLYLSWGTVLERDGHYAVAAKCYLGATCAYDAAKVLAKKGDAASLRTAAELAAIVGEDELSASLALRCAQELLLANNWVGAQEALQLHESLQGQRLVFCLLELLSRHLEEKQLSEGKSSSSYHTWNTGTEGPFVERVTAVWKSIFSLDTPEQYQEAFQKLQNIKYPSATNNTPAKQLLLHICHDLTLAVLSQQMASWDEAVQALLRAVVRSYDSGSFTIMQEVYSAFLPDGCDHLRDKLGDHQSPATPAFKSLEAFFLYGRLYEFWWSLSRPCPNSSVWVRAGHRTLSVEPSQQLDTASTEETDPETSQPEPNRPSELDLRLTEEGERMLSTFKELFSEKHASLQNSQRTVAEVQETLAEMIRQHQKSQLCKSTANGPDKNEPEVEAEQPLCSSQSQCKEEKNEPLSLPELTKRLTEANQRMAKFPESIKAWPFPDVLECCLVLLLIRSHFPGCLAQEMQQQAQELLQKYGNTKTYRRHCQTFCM
TAP-tagged G5_(1–1287): residues 1-1287 of Q8TEQ6
TAP-tagged G5_(1–739): residues 1-739 of Q8TEQ6
TAP-tagged G5_(845–1508): residues 845-1508 of Q8TEQ6
TAP-tagged G5_(845–1508)AxE (Q8TEQ6, form named): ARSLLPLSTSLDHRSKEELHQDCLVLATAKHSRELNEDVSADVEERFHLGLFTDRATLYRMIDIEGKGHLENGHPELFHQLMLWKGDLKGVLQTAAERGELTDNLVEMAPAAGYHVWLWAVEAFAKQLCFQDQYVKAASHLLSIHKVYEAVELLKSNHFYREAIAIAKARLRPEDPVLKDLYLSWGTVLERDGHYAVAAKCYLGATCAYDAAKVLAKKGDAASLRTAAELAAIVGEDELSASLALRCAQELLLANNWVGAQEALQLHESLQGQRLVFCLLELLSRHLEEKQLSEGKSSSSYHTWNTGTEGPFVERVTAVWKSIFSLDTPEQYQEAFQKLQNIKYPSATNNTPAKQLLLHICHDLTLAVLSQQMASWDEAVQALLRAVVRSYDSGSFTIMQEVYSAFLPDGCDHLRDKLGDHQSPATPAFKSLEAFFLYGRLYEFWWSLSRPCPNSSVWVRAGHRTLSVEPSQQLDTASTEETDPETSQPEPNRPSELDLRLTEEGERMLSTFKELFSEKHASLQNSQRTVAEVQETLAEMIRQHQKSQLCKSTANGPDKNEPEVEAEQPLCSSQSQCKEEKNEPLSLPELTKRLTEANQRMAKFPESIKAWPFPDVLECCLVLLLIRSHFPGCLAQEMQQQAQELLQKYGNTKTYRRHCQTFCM
UniProt O14893: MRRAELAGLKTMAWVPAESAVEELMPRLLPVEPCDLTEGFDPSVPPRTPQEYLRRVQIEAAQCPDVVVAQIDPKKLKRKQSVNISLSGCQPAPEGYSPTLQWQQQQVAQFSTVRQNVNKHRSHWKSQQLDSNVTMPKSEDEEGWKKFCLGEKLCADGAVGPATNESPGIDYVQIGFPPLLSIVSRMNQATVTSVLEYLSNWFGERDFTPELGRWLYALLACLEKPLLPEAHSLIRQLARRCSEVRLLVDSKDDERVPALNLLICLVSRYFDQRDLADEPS
UniProt Q9UHI6: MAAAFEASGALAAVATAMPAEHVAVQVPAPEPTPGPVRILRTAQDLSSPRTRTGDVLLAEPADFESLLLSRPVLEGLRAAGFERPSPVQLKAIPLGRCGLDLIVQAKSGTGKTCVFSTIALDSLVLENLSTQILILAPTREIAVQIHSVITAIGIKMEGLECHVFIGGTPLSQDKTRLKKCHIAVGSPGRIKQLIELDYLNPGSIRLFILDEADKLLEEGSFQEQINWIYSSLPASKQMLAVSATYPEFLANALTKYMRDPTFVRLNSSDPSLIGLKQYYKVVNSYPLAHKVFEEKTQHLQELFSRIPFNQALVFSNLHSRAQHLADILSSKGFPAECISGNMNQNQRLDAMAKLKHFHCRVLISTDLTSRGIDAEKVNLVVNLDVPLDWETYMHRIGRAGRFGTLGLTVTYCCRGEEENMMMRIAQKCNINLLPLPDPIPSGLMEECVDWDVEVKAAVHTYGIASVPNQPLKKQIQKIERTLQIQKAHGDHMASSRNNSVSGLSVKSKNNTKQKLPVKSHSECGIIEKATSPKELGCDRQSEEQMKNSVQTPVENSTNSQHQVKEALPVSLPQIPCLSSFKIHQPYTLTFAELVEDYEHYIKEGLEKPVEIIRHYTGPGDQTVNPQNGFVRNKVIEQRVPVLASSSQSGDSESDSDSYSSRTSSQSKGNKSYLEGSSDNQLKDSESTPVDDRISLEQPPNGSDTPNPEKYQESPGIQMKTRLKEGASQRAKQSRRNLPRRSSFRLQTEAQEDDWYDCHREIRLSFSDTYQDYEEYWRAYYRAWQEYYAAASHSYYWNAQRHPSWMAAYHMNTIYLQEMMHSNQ
UniProt Q16637: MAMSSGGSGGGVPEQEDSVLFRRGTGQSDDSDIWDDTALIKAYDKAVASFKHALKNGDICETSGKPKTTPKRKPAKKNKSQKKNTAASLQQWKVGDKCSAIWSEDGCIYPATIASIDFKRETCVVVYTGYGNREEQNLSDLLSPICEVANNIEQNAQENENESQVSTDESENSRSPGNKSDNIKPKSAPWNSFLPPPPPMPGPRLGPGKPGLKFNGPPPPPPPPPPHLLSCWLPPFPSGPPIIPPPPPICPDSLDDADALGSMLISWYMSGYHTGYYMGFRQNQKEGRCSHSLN
UniProt P57678: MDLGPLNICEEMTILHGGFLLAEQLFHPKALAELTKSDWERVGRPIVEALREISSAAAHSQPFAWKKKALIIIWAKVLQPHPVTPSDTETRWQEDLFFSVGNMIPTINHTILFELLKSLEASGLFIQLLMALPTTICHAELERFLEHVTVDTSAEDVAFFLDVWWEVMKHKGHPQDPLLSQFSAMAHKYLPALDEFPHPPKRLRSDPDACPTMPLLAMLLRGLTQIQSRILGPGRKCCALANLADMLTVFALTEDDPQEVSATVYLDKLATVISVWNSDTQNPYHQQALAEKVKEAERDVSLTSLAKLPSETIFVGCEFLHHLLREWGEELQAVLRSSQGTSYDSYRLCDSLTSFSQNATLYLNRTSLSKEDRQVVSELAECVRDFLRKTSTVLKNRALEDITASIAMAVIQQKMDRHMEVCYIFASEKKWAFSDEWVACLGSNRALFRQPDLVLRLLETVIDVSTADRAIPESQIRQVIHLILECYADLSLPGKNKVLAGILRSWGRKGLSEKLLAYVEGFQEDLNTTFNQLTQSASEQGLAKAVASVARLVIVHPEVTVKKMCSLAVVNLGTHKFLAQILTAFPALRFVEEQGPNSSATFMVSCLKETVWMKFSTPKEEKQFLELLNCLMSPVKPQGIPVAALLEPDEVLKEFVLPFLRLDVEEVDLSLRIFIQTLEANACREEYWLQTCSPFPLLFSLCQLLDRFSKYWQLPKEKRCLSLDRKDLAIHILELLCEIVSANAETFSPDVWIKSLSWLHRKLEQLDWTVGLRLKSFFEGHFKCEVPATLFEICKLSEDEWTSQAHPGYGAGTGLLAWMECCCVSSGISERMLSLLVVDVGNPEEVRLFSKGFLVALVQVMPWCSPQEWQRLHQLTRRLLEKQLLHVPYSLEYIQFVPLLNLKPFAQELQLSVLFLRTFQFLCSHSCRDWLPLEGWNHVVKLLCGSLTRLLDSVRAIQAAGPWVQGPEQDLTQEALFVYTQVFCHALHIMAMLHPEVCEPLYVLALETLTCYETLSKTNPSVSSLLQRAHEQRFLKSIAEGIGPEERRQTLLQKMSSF
UniProt Q8WXD5: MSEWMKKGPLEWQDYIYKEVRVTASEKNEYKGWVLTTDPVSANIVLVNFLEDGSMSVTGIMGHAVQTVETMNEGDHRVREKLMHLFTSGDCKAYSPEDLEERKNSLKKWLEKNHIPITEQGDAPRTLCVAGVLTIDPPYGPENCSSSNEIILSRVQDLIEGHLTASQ
UniProt P11940: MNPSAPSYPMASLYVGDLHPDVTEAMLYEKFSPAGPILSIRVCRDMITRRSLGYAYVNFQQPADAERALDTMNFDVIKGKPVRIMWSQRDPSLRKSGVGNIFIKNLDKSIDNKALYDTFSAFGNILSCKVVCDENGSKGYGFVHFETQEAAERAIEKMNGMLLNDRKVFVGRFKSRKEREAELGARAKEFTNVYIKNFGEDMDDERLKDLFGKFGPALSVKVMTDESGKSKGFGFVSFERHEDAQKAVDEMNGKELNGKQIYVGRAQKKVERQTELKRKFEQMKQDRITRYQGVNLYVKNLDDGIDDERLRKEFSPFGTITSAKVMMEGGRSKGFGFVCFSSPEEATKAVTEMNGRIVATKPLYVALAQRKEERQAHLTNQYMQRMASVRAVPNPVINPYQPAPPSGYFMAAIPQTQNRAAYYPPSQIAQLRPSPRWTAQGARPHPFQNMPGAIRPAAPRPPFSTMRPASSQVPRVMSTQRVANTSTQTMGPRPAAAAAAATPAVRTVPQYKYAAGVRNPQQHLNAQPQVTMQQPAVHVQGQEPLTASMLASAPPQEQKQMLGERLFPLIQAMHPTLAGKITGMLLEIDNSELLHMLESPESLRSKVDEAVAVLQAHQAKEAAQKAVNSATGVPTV

No constants are given. Whether binding was seen depends on the method and setting. Binding seen in cells or lysates may run through a third protein. These calls come from enrichment with a bait or labelling near it, and not all partners need be listed. For some of these results: No binding means not detected with the bait.

“endogenous Gemin5 (from UniProt Q8TEQ6 1-1508)”: the binding result in the experiment with TAP-tagged G5_(1–739) was “no binding”; with TAP-tagged G5_(845–1508) it was “binds”.

On to Gemin2 (from UniProt O14893 1-280), for which the binding entry in the experiment with TAP-tagged G5_(1–1287) and in the experiment with TAP-tagged G5_(845–1508) was “binds” throughout.

Gemin3 (from UniProt Q9UHI6 1-824): the binding result was “binds” in the experiment with TAP-tagged G5_(1–1287), “no binding” in the experiment with TAP-tagged G5_(1–739) and “binds” with TAP-tagged G5_(845–1508).

For SMN (from UniProt Q16637 1-294), the binding entry is “binds” with TAP-tagged G5_(1–1287), “no binding” with TAP-tagged G5_(1–739) and “binds” with TAP-tagged G5_(845–1508).

As for Gemin4 (from UniProt P57678 1-1058), the binding entry was “binds” with TAP-tagged G5_(1–1287), “no binding” with TAP-tagged G5_(1–739), “binds” in the experiment with TAP-tagged G5_(845–1508) and “no binding” in experiment [1].

As for Gemin6 (from UniProt Q8WXD5 1-167), the binding result with TAP-tagged G5_(1–1287) and in the experiment with TAP-tagged G5_(845–1508) was “binds” each time.

Turning to “poly(A) binding protein cytoplasmic 1 (from UniProt P11940 1-636)”, the binding entry with TAP-tagged G5_(1–1287) is recorded as “binds”; in the experiment with TAP-tagged G5_(1–739), “binds”; with TAP-tagged G5_(845–1508) it was “binds”; in experiment [1], “no binding”.

B1: Gemin8 (protein, UniProt Q9NWZ8 1-242)
chain: MAAVKASTSKATRPWYSHPVYARYWQHYHQAMAWMQSHHNAYRKAVESCFNLPWYLPSALLPQSSYDNEAAYPQSFYDHHVAWQDYPCSSSHFRRSGQHPRYSSRIQASTKEDQALSKEEEMETESDAEVECDLSNMEITEELRQYFAETERHREERRRQQQLDAERLDSYVNADHDLYCNTRRSVEAPTERPGERRQAEMKRLYGDSAAKIQAMEAAVQLSFDKHCDRKQPKYWPVIPLKF
As to B1, the binding entry with TAP-tagged G5_(1–1287) and with TAP-tagged G5_(845–1508) was “binds” each time.
